“And” between values parts separate entries of the source, which are not always exact repeats. Equal values may be shown once. The list shows a part of the results. For some assays here: The exact form of the protein is not confirmed.
Columns and labels:
Test in all cases: protein microarray (ProtoArray v5.0), streptavidin-Alexa Fluor 647
Details in all cases: 3'-biotin; 20 mM Tris (pH 7.5), 5 mM MgCl2, 100 mM KCl, 0.1% Tween-20, A/T-rich and random oligonucleotide blockers; temperature not stated; high values mean tight binding
ANGPTL5 = ANGPTL5 (UniProt Q86XS5)
ANKHD1 (human) = tested on: ANKHD1 (human)
ANKRD13A (human) = tested on: ANKRD13A (human)
ANKRD17 (human) = tested on: ANKRD17 (human)
ANKRD37 (human) = tested on: ANKRD37 (human)
ANKRD45 (human) = tested on: ANKRD45 (human)
ANKRD49 (human) = tested on: ANKRD49 (human)
ANKRD50 (human) = tested on: ANKRD50 (human)
ANKS3 (human) = tested on: ANKS3 (human)
ANPEP (human) = tested on: ANPEP (human)
ANXA1 (human) = tested on: ANXA1 (human)
ANXA5 (human) = tested on: ANXA5 (human)
ANXA6 (human) = tested on: ANXA6 (human)
ANXA7 (human) = tested on: ANXA7 (human)
ANXA9 (human) = tested on: ANXA9 (human)
[1] = tested on: AP-2 complex subunit sigma-1 (human)
[2] = tested on: AP-3 complex subunit sigma-1 (human)
AP4M1 (human) = tested on: AP4M1 (human)
APBA2BP (human) = tested on: APBA2BP (human)
APBB1IP = biological target: T1, APBB1IP (UniProt Q7Z5R6)
T1 sequence: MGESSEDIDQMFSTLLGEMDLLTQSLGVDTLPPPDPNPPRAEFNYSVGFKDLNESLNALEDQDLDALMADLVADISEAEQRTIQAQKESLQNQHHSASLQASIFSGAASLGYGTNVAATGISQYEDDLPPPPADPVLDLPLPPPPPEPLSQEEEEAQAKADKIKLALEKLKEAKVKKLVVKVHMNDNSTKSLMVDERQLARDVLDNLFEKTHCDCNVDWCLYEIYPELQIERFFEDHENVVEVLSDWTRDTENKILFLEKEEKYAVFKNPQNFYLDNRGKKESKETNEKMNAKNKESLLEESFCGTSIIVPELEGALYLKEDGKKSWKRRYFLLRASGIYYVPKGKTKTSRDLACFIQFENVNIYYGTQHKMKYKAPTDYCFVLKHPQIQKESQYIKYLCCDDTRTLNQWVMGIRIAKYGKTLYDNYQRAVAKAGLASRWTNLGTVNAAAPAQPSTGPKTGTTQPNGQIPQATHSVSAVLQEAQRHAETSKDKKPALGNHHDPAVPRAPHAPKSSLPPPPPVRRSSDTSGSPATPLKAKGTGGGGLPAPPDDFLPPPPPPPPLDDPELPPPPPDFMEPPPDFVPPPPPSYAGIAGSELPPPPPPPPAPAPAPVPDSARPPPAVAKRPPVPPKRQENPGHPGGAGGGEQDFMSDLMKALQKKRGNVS

Protein sequences, listed by entry. Tags and fused reporters are not part of them. Lines headed by an entry give the natural chain unless they say otherwise; changes in a name come on top.
UniProt Q86XS5: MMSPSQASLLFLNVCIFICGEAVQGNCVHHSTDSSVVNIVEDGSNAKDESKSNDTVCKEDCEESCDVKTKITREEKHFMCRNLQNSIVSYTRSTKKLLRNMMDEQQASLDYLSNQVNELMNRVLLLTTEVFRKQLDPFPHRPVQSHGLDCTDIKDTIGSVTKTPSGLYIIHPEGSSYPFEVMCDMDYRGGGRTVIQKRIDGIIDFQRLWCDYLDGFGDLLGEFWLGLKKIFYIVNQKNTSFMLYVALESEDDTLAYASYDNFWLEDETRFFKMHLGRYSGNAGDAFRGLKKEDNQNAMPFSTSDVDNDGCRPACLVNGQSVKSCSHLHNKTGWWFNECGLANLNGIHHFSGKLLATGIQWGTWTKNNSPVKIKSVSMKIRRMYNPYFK

Q: With “GGGAGGCTGAGGCAGG [G4-1 biotinylated (PQS2)]” as the sequence, how does the binding signal (ANGPTL5) read?
A: Its binding signal is -0.279 z-score.

Q: What about the binding signal (ANKHD1 (human)) of the same sequence?
A: The binding signal was -0.344 z-score and -0.337 z-score.

Q: What about the binding signal (ANKRD13A (human)) of the same sequence?
A: The binding signal was -0.262 z-score.

Q: And the binding signal (ANKRD17 (human))?
A: The binding signal was -0.353 z-score.

Q: And the binding signal (ANKRD37 (human))?
A: Its binding signal is -0.304 z-score.

Q: And the binding signal (ANKRD45 (human))?
A: Its binding signal is -0.353 z-score.

Q: And the binding signal (ANKRD49 (human))?
A: Its binding signal is -0.316 z-score.

Q: And the binding signal (ANKRD50 (human))?
A: The binding signal was -0.326 z-score.

Q: And the binding signal (ANKS3 (human))?
A: Its binding signal is -0.335 z-score.

Q: What about the binding signal (ANPEP (human)) of the same sequence?
A: Its binding signal is -0.34 z-score.

Q: What about the binding signal (ANXA1 (human)) of the same sequence?
A: The binding signal was -0.33 z-score.

Q: And the binding signal (ANXA5 (human))?
A: The binding signal was -0.308 z-score.

Q: And the binding signal (ANXA6 (human))?
A: Its binding signal is -0.325 z-score.

Q: And the binding signal (ANXA7 (human))?
A: Its binding signal is -0.33 z-score.

Q: And the binding signal (ANXA9 (human))?
A: The binding signal was -0.277 z-score.

Q: What about the binding signal [1] of the same sequence?
A: Its binding signal is -0.277 z-score.

Q: What about the binding signal [2] of the same sequence?
A: Its binding signal is -0.307 z-score.

Q: And the binding signal (AP4M1 (human))?
A: Its binding signal is -0.271 z-score.

Q: What about the binding signal (APBA2BP (human)) of the same sequence?
A: Its binding signal is -0.335 z-score.

Q: What about the binding signal (APBB1IP) of the same sequence?
A: The binding signal was -0.341 z-score.
